Only a part is listed here, and it is no random draw. At the low end of the ranking the order means little.
These sequences were tested against SPI1 (UniProt P17947) (assay: DAPPL (digital affinity profiling via proximity ligation, sequencing)). Conditions: 10 mM Tris-HCl pH 7.5, 50 mM NaCl, 1 mM DTT, 4% glycerol, room temperature, 30 min; GST-TFs on glutathione beads, 16-mer random dsDNA library, 0.1% …; high values mean tight binding; double strand, one strand shown; scale: fold enrichment (6-mer frequency, TF over GST control).
Sequence GAAGCA has a binding signal of 1.28.
CCTGCA gave a binding signal of 1.17.
AATGCC gave a binding signal of 1.06.
With TACTGA the binding signal was 1.02.
In the case of TACGAT, the binding signal was 1.09.
GATTTC gave a binding signal of 1.67.
TAATAG showed a binding signal of 1.2.
CGACGA was tested, and the binding signal was 0.975.
With GCCAAT the binding signal was 1.01.
CCGCCC showed a binding signal of 1.17.
In the case of TTTGCG, the binding signal was 1.32.
Work on CCCCGG yielded a binding signal of 1.16.
CGTTCG was tested, and the binding signal was 1.1.
Work on AACCTT yielded a binding signal of 1.26.
Sequence CTTTTT has a binding signal of 1.88.
Sequence ATTATG has a binding signal of 1.25.
AAGAAT showed a binding signal of 1.18.
TACGTT showed a binding signal of 1.25.
In the case of CTTATC, the binding signal was 1.2.
TTCAGC was tested, and the binding signal was 1.18.
With CCCTCG the binding signal was 1.23.
In the case of TGTATC, the binding signal was 1.37.
TGTTAT was tested, and the binding signal was 1.38.
Work on GAACTC yielded a binding signal of 1.39.
Work on TATTCT yielded a binding signal of 1.31.
CTCAGG gave a binding signal of 1.
CACTTC showed a binding signal of 5.56.
CACAAT showed a binding signal of 1.02.
In the case of AGCCCC, the binding signal was 1.02.
Sequence TATGGA has a binding signal of 1.07.
GATGCT showed a binding signal of 1.23.
CCGTAA was tested, and the binding signal was 1.13.
Sequence AAGCAG has a binding signal of 1.24.
In the case of ACTCTC, the binding signal was 1.49.
Work on CCTAGA yielded a binding signal of 0.976.
